Test results published in PMC11077064, “The origin recognition complex requires chromatin tethering by a hypervariable intrinsically disordered region that is functionally conserved from sponge to man”.
The exact form of at least one protein or probe is not confirmed. For some of these results: A negative result means that nothing was seen under these conditions. For some of these results: Weaker means in comparison with the reference protein, sequence or condition of that experiment. For some of these results: At least one verdict was read from the data and is not stated in words by the source.

Chains of the proteins cited; added tags and fusions are not shown. Chains listed by the source or under a name are the forms on record and can include a tag or linker. Residues count along the entry.
UniProt O16810, 187-549: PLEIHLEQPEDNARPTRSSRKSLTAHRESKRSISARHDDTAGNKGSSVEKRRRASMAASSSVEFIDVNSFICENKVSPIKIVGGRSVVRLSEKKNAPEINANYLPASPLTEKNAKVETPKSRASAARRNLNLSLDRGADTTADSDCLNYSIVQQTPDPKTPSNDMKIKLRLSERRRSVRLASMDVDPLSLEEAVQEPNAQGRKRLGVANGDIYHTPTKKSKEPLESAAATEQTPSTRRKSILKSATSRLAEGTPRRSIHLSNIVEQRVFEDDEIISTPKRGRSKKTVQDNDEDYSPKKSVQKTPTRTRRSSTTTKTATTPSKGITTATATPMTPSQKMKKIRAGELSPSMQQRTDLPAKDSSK
DmORC holocomplex (Orc1-6) (Drosophila melanogaster), one chain, as listed by the source, chain 3 of 4: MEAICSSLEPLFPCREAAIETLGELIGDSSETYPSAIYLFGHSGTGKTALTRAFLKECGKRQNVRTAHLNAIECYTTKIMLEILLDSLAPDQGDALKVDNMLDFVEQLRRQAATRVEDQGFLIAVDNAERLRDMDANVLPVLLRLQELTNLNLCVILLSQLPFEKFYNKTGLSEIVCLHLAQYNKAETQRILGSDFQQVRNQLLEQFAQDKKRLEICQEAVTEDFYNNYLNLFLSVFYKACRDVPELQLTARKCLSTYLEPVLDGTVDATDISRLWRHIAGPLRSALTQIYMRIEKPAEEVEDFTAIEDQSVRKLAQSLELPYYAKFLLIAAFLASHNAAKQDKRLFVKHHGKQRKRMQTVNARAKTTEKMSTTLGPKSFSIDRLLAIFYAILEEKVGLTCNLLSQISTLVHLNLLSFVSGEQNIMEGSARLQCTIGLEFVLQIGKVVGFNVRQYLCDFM
DmORC holocomplex (Orc1-6) (Drosophila melanogaster), one chain, as listed by the source, chain 4 of 4: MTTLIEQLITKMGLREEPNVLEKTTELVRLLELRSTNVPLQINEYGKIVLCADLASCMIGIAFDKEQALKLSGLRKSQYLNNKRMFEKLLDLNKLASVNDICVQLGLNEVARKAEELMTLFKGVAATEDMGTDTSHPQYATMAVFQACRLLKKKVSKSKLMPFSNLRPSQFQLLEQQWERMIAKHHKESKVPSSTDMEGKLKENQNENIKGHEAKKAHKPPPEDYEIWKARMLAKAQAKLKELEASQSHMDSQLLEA
DmORC holocomplex (Orc1-6) (Drosophila melanogaster), one chain, as listed by the source, chain 2 of 4: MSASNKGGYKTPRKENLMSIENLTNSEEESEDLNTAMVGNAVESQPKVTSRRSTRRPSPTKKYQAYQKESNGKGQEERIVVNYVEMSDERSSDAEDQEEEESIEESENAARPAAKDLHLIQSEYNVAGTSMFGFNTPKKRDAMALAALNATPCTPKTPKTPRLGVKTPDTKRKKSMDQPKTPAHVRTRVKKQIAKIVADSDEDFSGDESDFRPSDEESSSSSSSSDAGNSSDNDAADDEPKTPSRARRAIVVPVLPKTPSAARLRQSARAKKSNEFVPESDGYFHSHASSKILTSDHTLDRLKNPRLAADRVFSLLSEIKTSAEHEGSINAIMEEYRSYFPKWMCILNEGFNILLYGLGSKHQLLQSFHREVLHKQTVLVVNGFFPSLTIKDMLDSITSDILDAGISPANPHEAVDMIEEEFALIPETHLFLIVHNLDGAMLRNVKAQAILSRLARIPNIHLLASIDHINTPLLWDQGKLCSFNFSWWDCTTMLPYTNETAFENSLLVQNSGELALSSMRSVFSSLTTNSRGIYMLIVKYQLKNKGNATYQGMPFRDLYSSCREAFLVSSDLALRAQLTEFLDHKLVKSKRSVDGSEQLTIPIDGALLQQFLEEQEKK
DmORC holocomplex (Orc1-6) (Drosophila melanogaster), one chain, as listed by the source, chain 1 of 4: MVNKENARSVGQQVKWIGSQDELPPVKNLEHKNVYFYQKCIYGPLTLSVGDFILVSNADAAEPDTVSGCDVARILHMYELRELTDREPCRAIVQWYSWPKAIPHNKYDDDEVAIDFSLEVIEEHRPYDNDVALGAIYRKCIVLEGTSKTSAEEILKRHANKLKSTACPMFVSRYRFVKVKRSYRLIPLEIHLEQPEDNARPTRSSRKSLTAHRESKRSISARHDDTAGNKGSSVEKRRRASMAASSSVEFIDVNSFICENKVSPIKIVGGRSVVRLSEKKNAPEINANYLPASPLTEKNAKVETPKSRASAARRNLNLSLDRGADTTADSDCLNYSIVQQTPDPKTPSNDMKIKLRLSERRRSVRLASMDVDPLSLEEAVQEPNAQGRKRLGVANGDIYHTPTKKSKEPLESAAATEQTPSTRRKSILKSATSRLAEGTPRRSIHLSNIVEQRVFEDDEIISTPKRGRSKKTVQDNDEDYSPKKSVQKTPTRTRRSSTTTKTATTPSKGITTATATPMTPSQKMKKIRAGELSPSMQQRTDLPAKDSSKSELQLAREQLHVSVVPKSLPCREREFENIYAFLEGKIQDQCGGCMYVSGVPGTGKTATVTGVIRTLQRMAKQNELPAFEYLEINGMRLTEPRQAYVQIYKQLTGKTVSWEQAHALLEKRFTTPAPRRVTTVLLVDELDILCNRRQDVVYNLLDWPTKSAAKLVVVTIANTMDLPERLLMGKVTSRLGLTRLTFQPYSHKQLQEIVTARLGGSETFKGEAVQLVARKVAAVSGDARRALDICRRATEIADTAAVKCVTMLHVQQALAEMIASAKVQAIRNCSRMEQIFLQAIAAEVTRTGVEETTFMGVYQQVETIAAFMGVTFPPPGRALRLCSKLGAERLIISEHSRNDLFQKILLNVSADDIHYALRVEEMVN

What was measured:
[1] = system: BpOrc1 IDR treated with CDK2/CycE (Brachionus plicatilis); assay: EMSA; conditions: 600 nM, CDK2/CycE-treated; EMSA: 50 mM HEPES pH 7.5, 150 mM K-glutamate, 10% glycerol, 1 mM BME, 2 nM DNA, RT 20 min, 1% agarose; recombinant protein; protein details: His6-MBP removed by TEV
[2] = system: HdOrc1 IDR treated with CDK2/CycE (Hypsibius dujardini); assay: EMSA; conditions: 600 nM, CDK2/CycE-treated, not regulated; EMSA: 50 mM HEPES pH 7.5, 150 mM K-glutamate, 10% glycerol, 1 mM BME, 2 nM DNA, RT 20 min, 1% agarose; recombinant protein; protein details: His6-MBP removed by TEV
[3] = system: AmOrc1 IDR (Acropora millepora); assay: EMSA; conditions: 600 nM; EMSA: 50 mM HEPES pH 7.5, 150 mM K-glutamate, 10% glycerol, 1 mM BME, 2 nM DNA, RT 20 min, 1% agarose; recombinant protein; protein details: His6-MBP removed by TEV
[4] = system: HdOrc1 IDR (Hypsibius dujardini); assay: EMSA; conditions: 600 nM; EMSA: 50 mM HEPES pH 7.5, 150 mM K-glutamate, 10% glycerol, 1 mM BME, 2 nM DNA, RT 20 min, 1% agarose; recombinant protein; protein details: His6-MBP removed by TEV
[5] = system: MyOrc1 IDR treated with CDK2/CycE (Mizuhopecten yessoensis); assay: EMSA; conditions: 600 nM, CDK2/CycE-treated, not regulated; EMSA: 50 mM HEPES pH 7.5, 150 mM K-glutamate, 10% glycerol, 1 mM BME, 2 nM DNA, RT 20 min, 1% agarose; recombinant protein; protein details: His6-MBP removed by TEV
[6] = system: BpOrc1 IDR (Brachionus plicatilis); assay: EMSA; conditions: 600 nM; EMSA: 50 mM HEPES pH 7.5, 150 mM K-glutamate, 10% glycerol, 1 mM BME, 2 nM DNA, RT 20 min, 1% agarose; recombinant protein; protein details: His6-MBP removed by TEV
[7] = biological target: pOrc1 IDR (CDK2/CycE phosphorylated) (Drosophila melanogaster) (UniProt O16810); assay: EMSA; conditions: Kd N.D., >100-fold reduction in affinity, label not stated; EMSA: 50 mM HEPES pH 7.5, 150 mM K-glutamate, 10% glycerol, 1 mM BME, 2 nM DNA, RT 20 min, 1% agarose; recombinant protein; residues 187-549; protein details: His6-MBP removed by TEV
[8] = system: AmOrc1 IDR treated with CDK2/CycE (Acropora millepora); assay: EMSA; conditions: 600 nM, CDK2/CycE-treated; EMSA: 50 mM HEPES pH 7.5, 150 mM K-glutamate, 10% glycerol, 1 mM BME, 2 nM DNA, RT 20 min, 1% agarose; recombinant protein; protein details: His6-MBP removed by TEV
[9] = system: DgOrc1 IDR treated with CDK2/CycE (Dimorphilus gyrociliatus); assay: EMSA; conditions: 600 nM, CDK2/CycE-treated, only partially regulated; EMSA: 50 mM HEPES pH 7.5, 150 mM K-glutamate, 10% glycerol, 1 mM BME, 2 nM DNA, RT 20 min, 1% agarose; recombinant protein; protein details: His6-MBP removed by TEV
[10] = system: AqOrc1 IDR (Amphimedon queenslandica); assay: EMSA; conditions: 600 nM, relatively weak affinity; EMSA: 50 mM HEPES pH 7.5, 150 mM K-glutamate, 10% glycerol, 1 mM BME, 2 nM DNA, RT 20 min, 1% agarose; recombinant protein; protein details: His6-MBP removed by TEV
[11] = system: AqOrc1 IDR treated with CDK2/CycE (Amphimedon queenslandica); assay: EMSA; conditions: 600 nM, CDK2/CycE-treated, not regulated; EMSA: 50 mM HEPES pH 7.5, 150 mM K-glutamate, 10% glycerol, 1 mM BME, 2 nM DNA, RT 20 min, 1% agarose; recombinant protein; protein details: His6-MBP removed by TEV
[12] = system: MyOrc1 IDR (Mizuhopecten yessoensis); assay: EMSA; conditions: 600 nM; EMSA: 50 mM HEPES pH 7.5, 150 mM K-glutamate, 10% glycerol, 1 mM BME, 2 nM DNA, RT 20 min, 1% agarose; recombinant protein; protein details: His6-MBP removed by TEV
[13] = system: DgOrc1 IDR (Dimorphilus gyrociliatus); assay: EMSA; conditions: 600 nM; EMSA: 50 mM HEPES pH 7.5, 150 mM K-glutamate, 10% glycerol, 1 mM BME, 2 nM DNA, RT 20 min, 1% agarose; recombinant protein; protein details: His6-MBP removed by TEV
[14] = biological target: DmOrc1 IDR treated with CDK2/CycE (Drosophila melanogaster) (UniProt O16810); assay: EMSA; conditions: 600 nM, CDK2/CycE-treated, free DNA band, label not certain; EMSA: 50 mM HEPES pH 7.5, 150 mM K-glutamate, 10% glycerol, 1 mM BME, 2 nM DNA, RT 20 min, 1% agarose; recombinant protein; residues 187-549; protein details: His6-MBP removed by TEV
[15] = system: DmORC holocomplex (Orc1-6) (Drosophila melanogaster); assay: fluorescence polarization; conditions: no ATP, 300 mM KGlut, 5 mM MgOAc, Kd N.D., binding strictly ATP-dependent, FP: same with 150 or 300 mM K-glutamate, 0 or 1 mM ATP, RT 30 min, recombinant protein, protein details: Orc1 His6 and Orc4 MBP, TEV-cleaved
[16] = system: HdOrc1 IDR (Hypsibius dujardini); assay: fluorescence polarization; conditions: no saturation, Kd N.D.; FP: same with 150 or 300 mM K-glutamate, 5 mM MgOAc, 0 or 1 mM ATP, RT 30 min; recombinant protein; protein details: His6-MBP removed by TEV
[17] = system: BpOrc1 IDR (Brachionus plicatilis); assay: fluorescence polarization; conditions: no saturation, Kd N.D.; FP: same with 150 or 300 mM K-glutamate, 5 mM MgOAc, 0 or 1 mM ATP, RT 30 min; recombinant protein; protein details: His6-MBP removed by TEV
[18] = biological target: DmOrc1 IDR treated with CDK1/CycA (Drosophila melanogaster) (UniProt O16810); assay: fluorescence polarization; conditions: 5 uM IDR, 1 uM CDK1/CycA, 1 mM ATP; FP: same with 150 or 300 mM K-glutamate, 5 mM MgOAc, 0 or 1 mM ATP, RT 30 min; recombinant protein; residues 187-549; protein details: His6-MBP removed by TEV
[19] = biological target: DmOrc1 IDR treated with CDK2/CycE (Drosophila melanogaster) (UniProt O16810); assay: fluorescence polarization; conditions: 5 uM IDR, 1 uM CDK2/CycE, 1 mM ATP, also linear decrease in time course with 50 nM kinase (Fig 3K); FP: same with 150 or 300 mM K-glutamate, 5 mM MgOAc, 0 or 1 mM ATP, RT 30 min; recombinant protein; residues 187-549; protein details: His6-MBP removed by TEV

GAAGCTAGACTTAGGTGTCATATTGAACCTACTATGCCGAACTAGTTACGAGCTATAACC (double strand) [Cy5-dsDNA 60 bp]
binding result [1]: binds more weakly
binding result [2]: binds
binding result [3]: binds
binding result [4]: binds
binding result [5]: binds
binding result [6]: binds
binding result [7]: binds more weakly
binding result [8]: binds more weakly
binding result [9]: binds more weakly
binding result [10]: binds more weakly
binding result [11]: binds
binding result [12]: binds
binding result [13]: binds
binding result [14]: binds more weakly

GAAGCTAGACTTAGGTGTCATATTGAACCTACTATGCCGAACTAGTTACGAGCTATAACC (double strand) [FITC-dsDNA 60 bp]
binding result [15]: no binding
binding result [16]: binds more weakly
binding result [17]: binds more weakly
binding result [18]: binds more weakly
binding result [19]: binds more weakly
